Laboratory results reported in PMC10334828.
No constants are given. Whether binding was seen depends on the method and setting. For some of these results: In cells and extracts the contact can be indirect. Some results given as binding are weak or reduced against the parent protein; the word gives no strength. Sequences can lack the tags named with a protein.

Sequences of proteins named here, by UniProt entry; tags and fusion partners are left off.
UniProt P40763: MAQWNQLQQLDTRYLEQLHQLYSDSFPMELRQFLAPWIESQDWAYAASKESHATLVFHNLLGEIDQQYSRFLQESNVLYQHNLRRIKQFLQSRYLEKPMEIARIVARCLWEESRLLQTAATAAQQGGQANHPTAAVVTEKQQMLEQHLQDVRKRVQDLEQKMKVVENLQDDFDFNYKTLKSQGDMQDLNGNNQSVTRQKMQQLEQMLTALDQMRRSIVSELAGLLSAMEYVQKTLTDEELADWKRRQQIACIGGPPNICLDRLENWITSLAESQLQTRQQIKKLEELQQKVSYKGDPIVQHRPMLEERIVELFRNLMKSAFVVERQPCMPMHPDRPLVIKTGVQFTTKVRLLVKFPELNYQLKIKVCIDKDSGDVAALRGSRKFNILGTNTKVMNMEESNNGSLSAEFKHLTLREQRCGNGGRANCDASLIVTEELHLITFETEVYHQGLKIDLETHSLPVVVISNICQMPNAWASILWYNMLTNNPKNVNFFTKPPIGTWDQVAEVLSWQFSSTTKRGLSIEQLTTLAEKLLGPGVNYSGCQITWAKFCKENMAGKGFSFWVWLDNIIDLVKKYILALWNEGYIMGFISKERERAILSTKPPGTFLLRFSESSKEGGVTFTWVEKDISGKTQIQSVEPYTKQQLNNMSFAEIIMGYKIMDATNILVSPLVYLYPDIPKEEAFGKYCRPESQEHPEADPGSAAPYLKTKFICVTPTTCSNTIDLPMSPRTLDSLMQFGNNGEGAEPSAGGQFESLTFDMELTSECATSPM

Columns and labels:
[1] = target: T1, HDAC10 (histone deacetylase 10), endogenous in THP1 cells (human (endogenous in THP1)) (UniProt Q969S8); experiment: co-IP; endogenous proteins in THP1 cells treated with HDM; 1 mg lysate protein, 1 ug antibody to HDAC10 or STAT3 (IgG as control) overnight at 4 °C, Protein G beads, immunoblot
T1 sequence: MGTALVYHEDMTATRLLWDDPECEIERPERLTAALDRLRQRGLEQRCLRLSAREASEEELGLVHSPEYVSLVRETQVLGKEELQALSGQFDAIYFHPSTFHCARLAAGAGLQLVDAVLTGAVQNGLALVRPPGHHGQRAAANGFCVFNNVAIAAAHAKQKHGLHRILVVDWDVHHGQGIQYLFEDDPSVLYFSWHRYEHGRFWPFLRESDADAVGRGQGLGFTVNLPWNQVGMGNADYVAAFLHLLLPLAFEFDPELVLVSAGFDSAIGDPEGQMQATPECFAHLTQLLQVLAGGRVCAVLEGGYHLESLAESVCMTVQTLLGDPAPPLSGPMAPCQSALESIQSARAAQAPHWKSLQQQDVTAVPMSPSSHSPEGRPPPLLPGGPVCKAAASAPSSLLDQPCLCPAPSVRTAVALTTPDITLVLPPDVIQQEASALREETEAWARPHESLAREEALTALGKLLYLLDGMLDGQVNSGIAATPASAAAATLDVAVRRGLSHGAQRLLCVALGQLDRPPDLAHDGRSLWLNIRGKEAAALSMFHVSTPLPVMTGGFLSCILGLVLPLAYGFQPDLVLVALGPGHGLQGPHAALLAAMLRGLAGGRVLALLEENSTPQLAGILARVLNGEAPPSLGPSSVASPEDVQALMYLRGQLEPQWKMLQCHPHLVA

[2] = target: STAT3, endogenous in THP1 cells (human (endogenous in THP1)) (UniProt P40763); experiment: as above
[3] = target: HA-tagged STAT3 (UniProt P40763); experiment: co-IP; THP1 cells transfected with HA-tagged STAT3 alone or together with Flag-tagged HDAC10; IP with antibody to HA or Flag, immunoblot
[4] = target: GST-HA-STAT3 (UniProt P40763); experiment: pull-down; called GST pull-down; purified GST-HDAC10 and GST-HA-STAT3 mixed in equal amounts, primary antibody overnight at 4 °C, Protein G beads 1~2 h, western blot with anti-HDAC10 or anti-STAT3; both purified

Question: How did the binding [1] turn out when “STAT3, endogenous in THP1 cells (from UniProt P40763 1-770)” was run?
Answer: binds

B1: HDAC10 (histone deacetylase 10), endogenous in THP1 cells (protein, UniProt Q969S8 1-669)
chain: MGTALVYHEDMTATRLLWDDPECEIERPERLTAALDRLRQRGLEQRCLRLSAREASEEELGLVHSPEYVSLVRETQVLGKEELQALSGQFDAIYFHPSTFHCARLAAGAGLQLVDAVLTGAVQNGLALVRPPGHHGQRAAANGFCVFNNVAIAAAHAKQKHGLHRILVVDWDVHHGQGIQYLFEDDPSVLYFSWHRYEHGRFWPFLRESDADAVGRGQGLGFTVNLPWNQVGMGNADYVAAFLHLLLPLAFEFDPELVLVSAGFDSAIGDPEGQMQATPECFAHLTQLLQVLAGGRVCAVLEGGYHLESLAESVCMTVQTLLGDPAPPLSGPMAPCQSALESIQSARAAQAPHWKSLQQQDVTAVPMSPSSHSPEGRPPPLLPGGPVCKAAASAPSSLLDQPCLCPAPSVRTAVALTTPDITLVLPPDVIQQEASALREETEAWARPHESLAREEALTALGKLLYLLDGMLDGQVNSGIAATPASAAAATLDVAVRRGLSHGAQRLLCVALGQLDRPPDLAHDGRSLWLNIRGKEAAALSMFHVSTPLPVMTGGFLSCILGLVLPLAYGFQPDLVLVALGPGHGLQGPHAALLAAMLRGLAGGRVLALLEENSTPQLAGILARVLNGEAPPSLGPSSVASPEDVQALMYLRGQLEPQWKMLQCHPHLVA
Question: Which binding [2] does the source give for B1 here?
Answer: binds

B2: Flag-tagged HDAC10 (protein, UniProt Q969S8 1-669)
chain: MGTALVYHEDMTATRLLWDDPECEIERPERLTAALDRLRQRGLEQRCLRLSAREASEEELGLVHSPEYVSLVRETQVLGKEELQALSGQFDAIYFHPSTFHCARLAAGAGLQLVDAVLTGAVQNGLALVRPPGHHGQRAAANGFCVFNNVAIAAAHAKQKHGLHRILVVDWDVHHGQGIQYLFEDDPSVLYFSWHRYEHGRFWPFLRESDADAVGRGQGLGFTVNLPWNQVGMGNADYVAAFLHLLLPLAFEFDPELVLVSAGFDSAIGDPEGQMQATPECFAHLTQLLQVLAGGRVCAVLEGGYHLESLAESVCMTVQTLLGDPAPPLSGPMAPCQSALESIQSARAAQAPHWKSLQQQDVTAVPMSPSSHSPEGRPPPLLPGGPVCKAAASAPSSLLDQPCLCPAPSVRTAVALTTPDITLVLPPDVIQQEASALREETEAWARPHESLAREEALTALGKLLYLLDGMLDGQVNSGIAATPASAAAATLDVAVRRGLSHGAQRLLCVALGQLDRPPDLAHDGRSLWLNIRGKEAAALSMFHVSTPLPVMTGGFLSCILGLVLPLAYGFQPDLVLVALGPGHGLQGPHAALLAAMLRGLAGGRVLALLEENSTPQLAGILARVLNGEAPPSLGPSSVASPEDVQALMYLRGQLEPQWKMLQCHPHLVA
Question: With B2 as the molecule, how does the binding [3] read?
Answer: binds

B3: GST-HDAC10 (protein, UniProt Q969S8 1-669)
chain: MGTALVYHEDMTATRLLWDDPECEIERPERLTAALDRLRQRGLEQRCLRLSAREASEEELGLVHSPEYVSLVRETQVLGKEELQALSGQFDAIYFHPSTFHCARLAAGAGLQLVDAVLTGAVQNGLALVRPPGHHGQRAAANGFCVFNNVAIAAAHAKQKHGLHRILVVDWDVHHGQGIQYLFEDDPSVLYFSWHRYEHGRFWPFLRESDADAVGRGQGLGFTVNLPWNQVGMGNADYVAAFLHLLLPLAFEFDPELVLVSAGFDSAIGDPEGQMQATPECFAHLTQLLQVLAGGRVCAVLEGGYHLESLAESVCMTVQTLLGDPAPPLSGPMAPCQSALESIQSARAAQAPHWKSLQQQDVTAVPMSPSSHSPEGRPPPLLPGGPVCKAAASAPSSLLDQPCLCPAPSVRTAVALTTPDITLVLPPDVIQQEASALREETEAWARPHESLAREEALTALGKLLYLLDGMLDGQVNSGIAATPASAAAATLDVAVRRGLSHGAQRLLCVALGQLDRPPDLAHDGRSLWLNIRGKEAAALSMFHVSTPLPVMTGGFLSCILGLVLPLAYGFQPDLVLVALGPGHGLQGPHAALLAAMLRGLAGGRVLALLEENSTPQLAGILARVLNGEAPPSLGPSSVASPEDVQALMYLRGQLEPQWKMLQCHPHLVA
Question: For B3, which binding [4] is on record?
Answer: binds
